From PubChem BioAssay AID206 (DTP/NCI, 2004)
The list shows only some results of the screen, not a fair sample: it gathers tests that were run many times, whatever their T/C, doses with no T/C, and many T/C values between a quarter and a half above the control. Other doses and runs of a compound stand elsewhere. T/C: endpoint of the treated group in % of that of the vehicle group. Schedules are NCI's codes, taken here to give the interval after Q, in days (D) or hours (H), and the number of doses after X. Some values lie below zero, which means that the treated tumours became smaller. Some entries were tested several times; the results are listed from low to high. Some T/C values are followed by the survivors on the day toxicity was checked, most often the fifth; without a count, all were alive then. Some doses have a count of surviving animals in place of a T/C: the source holds a T/C of zero for them, seemingly a mark for toxic or unscored doses. Counts of survivors are from the toxicity check (mostly the fifth day) where no day follows; animals may have died later.

System: nude mice, HT29 intrarenal xenograft, tumor weight T/C
Assay: NCI In Vivo Anticancer Drug Screen. Data for tumor model HT29;CX-1 Human Adenocarcinoma (MER+) (intrarenal inoculation) in NU/NU Swiss (nude) mice
Settings: T/C endpoint: mean tumor weight change, higher T/C = larger tumour; for T/C: evaluated on day 11
In short: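 Mice with transplanted tumors are dosed with compound while controls get vehicle only. Survival or tumor burden is then assessed per group, and the treated value is expressed relative to control.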

[1] = dose: 200.0 mg/kg/injection, schedule: Q01DX010 (sc), vehicle: saline
[2] = dose: 400.0 mg/kg/injection, schedule: Q01DX010 (sc), vehicle: saline
[3] = dose: 800.0 mg/kg/injection, schedule: Q01DX010 (sc), vehicle: saline
[4] = dose: 1600.0 mg/kg/injection, schedule: Q01DX010 (sc), vehicle: saline
[5] = dose: 800.0 mg/kg/injection, schedule: Q01DX010 (sc), vehicle: Klucel (hydroxypropylcellulose) (HPC)
[6] = dose: 75.0 mg/kg/injection, schedule: Q04DX004 (sc), vehicle: Klucel (hydroxypropylcellulose) (HPC)
[7] = dose: 150.0 mg/kg/injection, schedule: Q04DX004 (sc), vehicle: Klucel (hydroxypropylcellulose) (HPC)
[8] = dose: 1.25 mg/kg/injection, schedule: Q01DX010 (sc), vehicle: water

O=C1C=CN(C2OC(CO)C(O)C2O)C(=O)C1 (stereo unspecified)
T/C (dose: 50.0 mg/kg/injection, schedule: Q01DX010 (sc), vehicle: saline): -1, 70, 94, 100, 116 [2 of 2 alive on day 11], 130 % of control | T/C (dose: 100.0 mg/kg/injection, schedule: Q01DX010 (sc), vehicle: saline): 1, 22 [2 of 2 alive on day 11], 41 [2 of 2 alive on day 11], 43, 56 [2 of 2 alive on day 11], 96, 114 % of control [2 of 3 alive on day 11] | T/C [1]: -27 [2 of 3 alive on day 11], 11 [2 of 3 alive on day 11], 28 [5 of 6 alive on day 11], 90 [2 of 2 alive on day 11], 95 % of control | survivor count [1]: 0 of 3 on day 11 | T/C [2]: 21 [2 of 3 alive on day 11], 49 [2 of 3 alive on day 11], 82 % of control | survivor count [2]: 0 of 3 on day 11 and 1 of 3 on day 11

CNC=O
T/C [1]: 12, 21, 53, 57 % of control | T/C [2]: -19, -16, 3, 25 % of control | T/C [3]: -49 [5 of 6 alive on day 11], -35, 5 % of control [4 of 6 alive on day 11] | survivor count [3]: 0 of 6 on day 11 | T/C [4]: -51 [4 of 6 alive on day 11] and -16 % of control [5 of 6 alive on day 11] | survivor count [4]: 0 of 6 on day 11

ClCCCCCCCCCCc1ccccc1
survivor count [5]: 1 of 3 on day 11

ClCC[Se](Cl)(Cl)c1ccccc1
T/C (dose: 25.0 mg/kg/injection, schedule: Q04DX004 (sc), vehicle: saline): 143 % of control | survivor count (dose: 100.0 mg/kg/injection, schedule: Q04DX004 (sc), vehicle: saline): 1 of 6 on day 11

COc1c(C=O)c2c(c(OC)c1OC)-c1ccc(OC)c(=O)cc1[C@@H](NC(C)=O)CC2
survivor count [6]: 3 of 5 on day 15 | survivor count [7]: 0 of 6 on day 15

Cc1c2ccc3ccccc3c2c[n+]2ccccc12
survivor count (dose: 37.5 mg/kg/injection, schedule: Q04DX004 (sc), vehicle: Klucel (hydroxypropylcellulose) (HPC)): 1 of 4 on day 15 | survivor count [6]: 0 of 4 on day 15 | survivor count [7]: 0 of 4 on day 15 | survivor count (dose: 300.0 mg/kg/injection, schedule: Q04DX004 (sc), vehicle: Klucel (hydroxypropylcellulose) (HPC)): 0 of 4 on day 15

O=C1N[C@@H]([C@H]2CC[C@H](Cl)CN2)C(=O)N[C@H]1[C@H]1CC[C@H](Cl)CN1
T/C (dose: 0.32 mg/kg/injection, schedule: Q01DX010 (sc), vehicle: water): 42, 50 [2 of 2 alive on day 11], 88 [2 of 3 alive on day 11], 104 % of control | T/C (dose: 0.63 mg/kg/injection, schedule: Q01DX010 (sc), vehicle: water): -3 [2 of 3 alive on day 11], 17, 27 [5 of 6 alive on day 11], 78, 105 % of control | T/C [8]: 7 and 78 % of control [5 of 6 alive on day 11] | survivor count [8]: 0 of 3 on day 11 and 1 of 6 on day 11 | survivor count (dose: 2.5 mg/kg/injection, schedule: Q01DX010 (sc), vehicle: water): 0 of 3 on day 11 | survivor count (dose: 5.0 mg/kg/injection, schedule: Q01DX010 (sc), vehicle: water): 0 of 3 on day 11 | survivor count (dose: 10.0 mg/kg/injection, schedule: Q01DX010 (sc), vehicle: water): 0 of 3 on day 11

Nc1nc(=S)c2ncn(C3CC(O)C(CO)O3)c2[nH]1 (stereo unspecified)
survivor count (dose: 5.0 mg/kg/injection, schedule: Q01DX010 (sc), vehicle: saline with Tween-80): 0 of 3 on day 11 | survivor count (dose: 10.0 mg/kg/injection, schedule: Q01DX010 (sc), vehicle: saline with Tween-80): 0 of 3 on day 11 | survivor count (dose: 15.0 mg/kg/injection, schedule: Q04DX004 (sc), vehicle: saline with Tween-80): 2 of 6 on day 15 | survivor count (dose: 20.0 mg/kg/injection, schedule: Q01DX010 (sc), vehicle: saline with Tween-80): 0 of 3 on day 11 | survivor count (dose: 40.0 mg/kg/injection, schedule: Q01DX010 (sc), vehicle: saline with Tween-80): 0 of 3 on day 11 | survivor count (dose: 200.0 mg/kg/injection, schedule: Q01DX010 (sc), vehicle: Klucel (hydroxypropylcellulose) (HPC)): 0 of 3 on day 11 | survivor count (dose: 400.0 mg/kg/injection, schedule: Q01DX010 (sc), vehicle: Klucel (hydroxypropylcellulose) (HPC)): 0 of 3 on day 11 | survivor count [5]: 0 of 3 on day 11

CCSC(=O)N1c2ccc(OC)cc2C=CC1C#N (stereo unspecified)
survivor count (dose: 4800.0 mg/kg/injection, schedule: Q04DX004 (sc), vehicle: saline with Tween-80): 2 of 6 on day 15

CCCCCC[C@H]([C@H](C)O)n1cnc2c(N)ncnc21
survivor count [2]: 1 of 3 on day 11

CN1N=C(N)c2cn(C3OC(COP(=O)(O)O)C(O)C3O)c3ncnc1c23 (stereo unspecified)
survivor count (dose: 100.0 mg/kg/injection, schedule: Q01DX010 (sc), vehicle: water): 0 of 3 on day 11 | survivor count (dose: 200.0 mg/kg/injection, schedule: Q01DX010 (sc), vehicle: water): 0 of 3 on day 11

CC[C@H]1CN2CCc3cc(OC)c(OC)cc3[C@@H]2C[C@@H]1C[C@H]1NCCc2cc(OC)c(OC)cc21
survivor count (dose: 8.0 mg/kg/injection, schedule: Q01DX010 (sc), vehicle: saline): 0 of 3 on day 20
